The entries are a selection whose mix differs from that of the whole data set. For part of these data: At the low end of the ranking the order means little. This is one part of the list. For part of these data: The exact form of the protein is not confirmed.

Chains of the proteins cited; added tags and fusions are not shown. Lines headed by an entry give the natural chain unless they say otherwise; changes in a name come on top.
UniProt P50549: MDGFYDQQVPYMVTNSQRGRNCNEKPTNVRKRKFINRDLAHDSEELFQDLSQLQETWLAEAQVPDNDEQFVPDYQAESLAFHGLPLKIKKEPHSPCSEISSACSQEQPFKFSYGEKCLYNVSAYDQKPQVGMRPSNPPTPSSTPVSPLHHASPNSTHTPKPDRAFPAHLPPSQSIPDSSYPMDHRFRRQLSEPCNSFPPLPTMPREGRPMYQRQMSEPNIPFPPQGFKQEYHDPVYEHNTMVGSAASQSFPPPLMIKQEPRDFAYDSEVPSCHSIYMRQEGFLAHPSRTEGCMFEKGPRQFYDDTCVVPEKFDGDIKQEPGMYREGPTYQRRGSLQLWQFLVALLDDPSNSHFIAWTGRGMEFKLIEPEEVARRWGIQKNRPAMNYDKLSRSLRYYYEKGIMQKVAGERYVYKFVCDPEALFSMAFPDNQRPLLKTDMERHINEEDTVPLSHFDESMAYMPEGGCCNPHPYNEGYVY

One assay deals with T1, ERG (UniProt P11308).
T1 sequence: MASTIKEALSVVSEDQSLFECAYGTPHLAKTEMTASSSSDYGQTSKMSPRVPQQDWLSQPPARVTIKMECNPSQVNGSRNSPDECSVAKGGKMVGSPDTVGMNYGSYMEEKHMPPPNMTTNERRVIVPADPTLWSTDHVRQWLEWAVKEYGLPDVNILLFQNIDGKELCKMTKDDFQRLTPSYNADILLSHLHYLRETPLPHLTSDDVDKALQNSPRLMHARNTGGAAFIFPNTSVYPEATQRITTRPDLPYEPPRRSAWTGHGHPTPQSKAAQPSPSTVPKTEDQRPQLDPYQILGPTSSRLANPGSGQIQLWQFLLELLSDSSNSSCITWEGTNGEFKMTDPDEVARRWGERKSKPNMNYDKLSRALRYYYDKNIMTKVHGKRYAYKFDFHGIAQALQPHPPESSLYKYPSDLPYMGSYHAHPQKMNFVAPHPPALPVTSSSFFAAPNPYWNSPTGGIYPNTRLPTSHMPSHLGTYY
Nature of the assay: DAPPL (digital affinity profiling via proximity ligation, sequencing). Particulars: 10 mM Tris-HCl pH 7.5, 50 mM NaCl, 1 mM DTT, 4% glycerol, room temperature, 30 min; GST-TFs on glutathione beads, 16-mer random dsDNA library, 0.1% …; high values mean tight binding; double strand, one strand shown; scale: fold enrichment (6-mer frequency, TF over GST control).
Consider ATATAG, for which the binding signal came to 1.19.
The same measure, in the same setting: under TAGTTG stands 0.961; under CCTTCC, 3.03.
Same read-out and setting: the value for CCAACC was 1.09; that for TGTCTG was 1.05.
Turning to CGCACC, the binding signal came to 0.909.
On the same count and under the same terms, the value for GCCCGA was 1.01.
The same measure, in the same setting: under TCGCGG stands 0.946.
As for TAGAAT, the binding signal is 1.03.
Same read-out and setting: the value for TAGTGC was 0.96; that for AAAGAT was 1.21.
The sequence TCTAAC yielded a binding signal of 1.22.
In turn, CCCGGC came in with a binding signal of 1.15.
Regarding TCTACC, the binding signal turned out to be 1.61.
The sequence TCATGG showed a binding signal of 1.15.
On the same count and under the same terms, the value for TGGCCA was 1.05; that for ACTTGA was 0.996.
Still for that read-out and setting: the value for GTGCCT was 0.995; that for GCTGCA was 0.948; that for GCAAAC was 0.983.
Same read-out and setting: under GTCTAA stands 1.09.
As to ACCTAG, the binding signal was 0.998.
AAGCCC had a binding signal of 0.969.
As for TCAAGC, the binding signal is 1.01.
Still for that read-out and setting: under GTATTG stands 0.998; under TAGGAA, 1.17; under ATCACG, 0.945.
The same measure, in the same setting: under GATTAA stands 0.963; under CCTCAA, 1.26; under CTCTAT, 1.17.
AGATAA displayed a binding signal of 0.992.
As for ATACGG, the binding signal worked out at 1.23.
The same measure, in the same setting: the value for TTCCAT was 1.25.
Same read-out and setting: under AAGCGC stands 1.13; under TTCTAG, 1.33.
The same measure, in the same setting: under TAAACC stands 1.21.
For CATTAC, the binding signal was found to be 1.06.
Still for that read-out and setting: under TAACGT stands 0.992; under GCTAGT, 0.961.
For the sequence CATCCA, the binding signal is 0.924.

The target in the next assay is T2, ETV4 (UniProt P43268).
T2 sequence: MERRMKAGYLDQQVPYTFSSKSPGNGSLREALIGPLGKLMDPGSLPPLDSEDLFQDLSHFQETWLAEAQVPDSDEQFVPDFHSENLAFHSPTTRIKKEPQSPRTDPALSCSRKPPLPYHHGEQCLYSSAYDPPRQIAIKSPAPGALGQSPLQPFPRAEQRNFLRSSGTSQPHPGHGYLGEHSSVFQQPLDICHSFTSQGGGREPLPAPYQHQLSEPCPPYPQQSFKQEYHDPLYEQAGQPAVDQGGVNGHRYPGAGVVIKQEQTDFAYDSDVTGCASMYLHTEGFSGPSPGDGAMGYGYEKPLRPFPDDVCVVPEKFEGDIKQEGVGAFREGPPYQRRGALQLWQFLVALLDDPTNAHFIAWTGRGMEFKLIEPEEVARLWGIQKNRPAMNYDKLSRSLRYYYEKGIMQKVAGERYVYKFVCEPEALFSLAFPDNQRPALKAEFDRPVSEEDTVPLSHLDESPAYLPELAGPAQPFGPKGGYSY
Described as above. The conditions noted are these: 10 mM Tris-HCl pH 7.5, 50 mM NaCl, 1 mM DTT, 4% glycerol, room temperature, 30 min; GST-TFs on glutathione beads, 16-mer random dsDNA library, 0.1% …; high values mean tight binding; double strand, one strand shown; scale: fold enrichment (6-mer frequency, TF over GST control).
Take ATATAG: the binding signal was found to be 1.05.
On the same count and under the same terms, under TAGTTG stands 1.02.
For CCTTCC, the binding signal turned out to be 2.57.
On the same count and under the same terms, the value for CCAACC was 1.13.
For TGTCTG, the binding signal was 1.19.
As to CGCACC, the binding signal came to 0.936.
For the sequence GCCCGA, the binding signal came to 0.988.
The same measure, in the same setting: under TCGCGG stands 0.984.
Same read-out and setting: under TAGAAT stands 1.06.
On the same count and under the same terms, under TAGTGC stands 1; under AAAGAT, 1.21; under TCTAAC, 1.21.
Sequence CCCGGC displayed a binding signal of 1.11.
On the same count and under the same terms, under TCTACC stands 1.67; under TCATGG, 1.14; under TGGCCA, 1.18.
ACTTGA gave a binding signal of 1.02.
On to GTGCCT, for which the binding signal turned out to be 1.02.
In turn, GCTGCA came in with a binding signal of 1.12.
On the same count and under the same terms, under GCAAAC stands 1.02; under GTCTAA, 1.1; under ACCTAG, 0.97.
Same read-out and setting: the value for AAGCCC was 1.11.
The same measure, in the same setting: under TCAAGC stands 0.994.
The sequence GTATTG registered a binding signal of 1.06.
Same read-out and setting: the value for TAGGAA was 1.09; that for ATCACG was 1.09; that for GATTAA was 1.04.
On the same count and under the same terms, the value for CCTCAA was 1.47.
The same measure, in the same setting: under CTCTAT stands 1.18; under AGATAA, 0.976.
As for ATACGG, the binding signal came out at 1.24.
Regarding TTCCAT, the binding signal stood at 1.31.
The same measure, in the same setting: the value for AAGCGC was 1.14; that for TTCTAG was 1.3; that for TAAACC was 1.21.
The sequence CATTAC showed a binding signal of 1.2.
TAACGT: the binding signal was 1.06.
For the sequence GCTAGT, the binding signal was 1.03.
As for CATCCA, the binding signal worked out at 0.963.

The next assay concerns the target ETV1 (UniProt P50549). Described as above. Particulars: 10 mM Tris-HCl pH 7.5, 50 mM NaCl, 1 mM DTT, 4% glycerol, room temperature, 30 min; GST-TFs on glutathione beads, 16-mer random dsDNA library, 0.1% …; high values mean tight binding; double strand, one strand shown; scale: fold enrichment (6-mer frequency, TF over GST control).
ATATAG came in with a binding signal of 1.17.
Take TAGTTG: the binding signal turned out to be 0.904.
The same measure, in the same setting: under CCTTCC stands 2.55; under CCAACC, 1.04.
For TGTCTG, the binding signal was found to be 1.04.
CGCACC gave a binding signal of 0.945.
GCCCGA gave a binding signal of 0.971.
Still for that read-out and setting: the value for TCGCGG was 0.963.
On the same count and under the same terms, the value for TAGAAT was 0.978; that for TAGTGC was 1.09.
Sequence AAAGAT displayed a binding signal of 1.27.
The same measure, in the same setting: the value for TCTAAC was 1.16.
Still for that read-out and setting: the value for CCCGGC was 1.19.
On the same count and under the same terms, the value for TCTACC was 1.57.
Take TCATGG: the binding signal stood at 0.977.
The same measure, in the same setting: the value for TGGCCA was 0.973.
Still for that read-out and setting: under ACTTGA stands 1.07; under GTGCCT, 0.899.
The sequence GCTGCA had a binding signal of 0.954.
GCAAAC came in with a binding signal of 1.03.
The sequence GTCTAA returned a binding signal of 1.11.
Same read-out and setting: the value for ACCTAG was 0.985; that for AAGCCC was 1.06.
Sequence TCAAGC returned a binding signal of 0.955.
GTATTG displayed a binding signal of 0.991.
Same read-out and setting: the value for TAGGAA was 1.13.
Turning to ATCACG, the binding signal was found to be 1.02.
On the same count and under the same terms, the value for GATTAA was 0.965.
Same read-out and setting: the value for CCTCAA was 1.42; that for CTCTAT was 1.13.
The same measure, in the same setting: the value for AGATAA was 1.04.
On to ATACGG, for which the binding signal was 1.21.
As to TTCCAT, the binding signal amounted to 1.25.
Turning to AAGCGC, the binding signal was 1.09.
TTCTAG: the binding signal was 1.2.
The same measure, in the same setting: the value for TAAACC was 1.23; that for CATTAC was 1.18.
Take TAACGT: the binding signal is 0.997.
Same read-out and setting: under GCTAGT stands 1.02; under CATCCA, 0.96.

The record behind these values is publication PMC7862700.
